# Measurements taken from the supplement of paper PMC8256030.
# Where “and” joins values, the source holds several entries; their conditions need not be identical. Equal entries are not always repeated. Some of the results follow. Single values are uncertain here, since repeats match poorly.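 HEK293T cells were given each compound shortly before transfection with a reporter in which red mCherry is followed by the SARS-CoV-2 frameshift element and then GFP in the −1 frame, so GFP appears only after frameshifting.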
# System: HEK293T
# Experiment: percent viability (nuclei count) relative to control; higher = more viable cells
# Conditions: 10 µM; 24 h
row,SMILES,percent viability
1,COc1ccc(Cc2cnc(N)nc2N)cc1OC [diaveridine],254%
2,CC(C)(C)NC(=O)N[C@H](C(=O)N1C[C@H]2[C@@H]([C@H]1C(=O)NC(CC1CCC1)C(=O)C(N)=O)C2(C)C)C(C)(C)C (some centres undefined) [Boceprevir],51.2%
3,Cn1c(=O)cnn(CCCCN2CCN(c3ncccn3)CC2)c1=O [eptapirone],107%
4,Nc1cc(-c2ccncc2)c[nH]c1=O [amrinone],129% and 243%
5,CN(C)CCc1c[nH]c2ccc(Cn3cncn3)cc12 [rizatriptan],268%
6,COc1cc(C2Oc3cc([C@H]4Oc5cc(O)cc(O)c5C(=O)[C@@H]4O)ccc3OC2CO)ccc1O (some centres undefined) [silibinin],67.3%
7,CO[C@H]1/C=C/O[C@@]2(C)Oc3c(C)c(O)c4c(O)c(cc(O)c4c3C2=O)NC(=O)/C(C)=C\C=C\[C@H](C)[C@H](O)[C@@H](C)[C@@H](O)[C@@H](C)[C@H](OC(C)=O)[C@@H]1C,136%
8,CO/N=C1\C[C@]2(C[C@@H]3C[C@@H](C/C=C(\C)C[C@@H](C)/C=C/C=C4\CO[C@@H]5[C@H](O)C(C)=C[C@@H](C(=O)O3)[C@]45O)O2)O[C@H](/C(C)=C/C(C)C)[C@H]1C [moxidectin],42.3%
9,NS(=O)(=O)c1cc2c(cc1Cl)N=CNS2(=O)=O,171%
10,CCC(=O)c1c(O)cc(O)cc1O [flopropione],212%
11,CC(=O)OCC[N+](C)(C)C [acetylcholine chloride],302% and 176%
12,CO/N=C(\C(=O)N[C@@H]1C(=O)N2C(C(=O)O)=C(COC(C)=O)CS[C@H]12)c1ccco1 [cefuracetime],149%
13,COc1cc2nc(N3CCN(C(=O)C4COc5ccccc5O4)CC3)nc(N)c2cc1OC (centres undefined) [doxazosin],183% and 326%
14,CC(C)Cn1cnc2c(N)nc3ccccc3c21 [imiquimod],224% and 284%
15,CN(C)CCCN1c2ccccc2CCc2ccc(Cl)cc21 [clomipramine],396%
16,O=C1NC(=O)C(C(=O)Nc2ccc(Cl)cc2)c2ccccc21 (centres undefined) [tesicam],133%
17,COC(=O)N/N=C/c1c[n+]([O-])c2ccccc2[n+]1[O-] [carbadox],145%
18,Nc1ccc(/N=N/c2ccccc2)c(N)n1,186%
19,COc1cc2c(cc1Cc1cccc(Cl)c1F)c(=O)c(C(=O)O)cn2[C@H](CO)C(C)C [elvitegravir],272%
20,O=C(/C=C/c1ccc2c(c1)OCO2)N1CCN(CC(=O)N2CCCC2)CC1 [cinoxopazide],76%

# 2 successive compounds out of the list so far:
row,SMILES,percent viability
3,Cn1c(=O)cnn(CCCCN2CCN(c3ncccn3)CC2)c1=O [eptapirone],107%
4,Nc1cc(-c2ccncc2)c[nH]c1=O [amrinone],129% and 243%

# Next part

row,SMILES,percent viability
1,CCCCCCCCCC(=O)N[C@H]1[C@H](Oc2c3cc4cc2Oc2ccc(cc2Cl)[C@@H](O[C@@H]2O[C@H](CO)[C@@H](O)[C@H](O)[C@H]2NC(C)=O)[C@@H]2NC(=O)[C@H](NC(=O)[C@@H]4NC(=O)[C@H]4NC(=O)[C@@H](Cc5ccc(c(Cl)c5)O3)NC(=O)[C@H](N)c3ccc(O)c(c3)Oc3cc(O)cc4c3)c3ccc(O)c(c3)-c3c(OC4O[C@H](CO)[C@@H](O)[C@H](O)[C@@H]4O)cc(O)cc3[C@@H](C(=O)O)NC2=O)O[C@H](CO)[C@@H](O)[C@@H]1O (some centres undefined) [teicoplanin],206%
2,COc1cc(CNC(=O)CCCC/C=C\C(C)C)ccc1O [zucapsaicin],158%
3,CC(/C=C1\SC(=S)N(CC(=O)O)C1=O)=C\c1ccccc1 [epalrestat],183%
4,Cc1cc(=O)c(C(=O)N[C@@H](C(=O)N[C@@H]2C(=O)N3C(C(=O)O)=C(CSc4nnnn4C)CS[C@H]23)c2ccc(O)cc2)c[nH]1,199%
5,CC1=C(/C=C/C(C)=C/C=C/C(C)=C/C(=O)Nc2ccc(O)cc2)C(C)(C)CCC1 [fenretinide],5.07%
6,CN(CCCCCCCCCCN(C)C(=O)Oc1cccc([N+](C)(C)C)c1)C(=O)Oc1cccc([N+](C)(C)C)c1 [Humorsol],200%
7,N#CC[C@H](C1CCCC1)n1cc(-c2ncnc3[nH]ccc23)cn1 [Ruxolitinib],373%
8,Cc1cc(O)c(C(=O)N[C@@H](C(=O)N[C@@H]2C(=O)N3C(C(=O)O)=C(CSc4nnnn4C)CS[C@H]23)c2ccc(O)cc2)cn1 [Cefpiramide],307%
9,CC(=O)OCC(=O)[C@@]12OC(C)(C)O[C@@H]1C[C@H]1[C@@H]3C[C@H](F)C4=CC(=O)C=C[C@]4(C)[C@@]3(F)[C@@H](O)C[C@@]12C [fluocinonide],171% and 255%
10,C[C@H]1[C@H](OC(=O)CCC(=O)O)O[C@@H]2O[C@@]3(C)CC[C@H]4[C@H](C)CC[C@@H]1[C@@]24OO3 [artesunate],108%
11,C/C=C/C(=O)N(CC)C(CC)C(=O)N(C)C (centres undefined) [crotetamide],122%
12,COc1cc([C@@H]2Oc3c(O)cc([C@H]4Oc5cc(O)cc(O)c5C(=O)[C@@H]4O)cc3[C@H]2CO)ccc1O [silicristin],279%
13,Cc1nnc(C(=O)NC(C)(C)c2nc(C(=O)NCc3ccc(F)cc3)c(O)c(=O)n2C)o1 [Raltegravir],270%
14,NCCc1cnc[nH]1,206%
15,CC(N)(Cc1ccc(O)cc1)C(=O)O (stereo not drawn) [racemetirosine],197%
16,Cn1cc(C(=O)[C@@H]2CCc3[nH]cnc3C2)c2ccccc21 [ramosetron],120%
17,Clc1ccc(Cn2c(CN3CCCC3)nc3ccccc32)cc1 [clemizole],270%
18,Cc1c(OCC(F)(F)F)ccnc1C[S+]([O-])c1nc2ccccc2[nH]1 (centres undefined) [lansoprazole],328%
19,Cc1cccc(C)c1NC(=O)C1CCCCN1C (centres undefined),343%
